# Article doi:10.1101/2023.01.10.523387
# B1: host protein lysine methyltransferase SiL_1451 (endogenous) (enzyme, UniProt F0NBH8 1-161)
# chain: MSYVPHVPYVPTPEKVVRRMLEIAKVSQDDIVYDLGCGDGRIIITAAKDFNVKKAVGVEINDERIREALANIEKNGVTGRASIVKGNFFEVDISEATVVTMFLLTNVNEMLKPKLEKELKPGTRVVSHEFEIRGWNPKEVIKVEDGNMNHTVYLYVIGEHK
# Target: N-terminally HA-tagged SIRV2 gp37 encoded within the viral genome (SIRV2)
# Assay: affinity purification with mass spectrometry
binder,measurement,value
B1,binding,binds

# No constants are given. Whether binding was seen depends on the method and setting. Binding seen in cells or lysates may run through a third protein. Here binding means that the protein was enriched with, or labelled near, the bait; the list need not be complete.
